Reference: PubChem BioAssay AID1224830 (NIAID, 2016)

- Screen: 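Genes whose knock-down alters the TNF-alpha reporter response to LPS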 (primary screen)
- System: human THP-1 monocytic leukaemia cells, TNF dual-luciferase reporter clone, PMA-differentiated to macrophage-like cells
- Reagent: siRNA pool against human genes, 50 nM
- Duration: LPS for 4 h, given about 3 days after siRNA transfection
- Challenge: bacterial LPS (TLR4 ligand), 10 ng/ml
- Read-out: 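TNF firefly reporter luminescence divided by renilla, normalised to the plate median, then turned into a robust z-score for each replicate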
- Scale: TNF reporter robust z-score: higher = stronger TNF reporter response to LPS
- Active means: 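Each well counts as active if its z-score is over 2.8 or under -1.5; controls are left without a call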
In all, the deposit lists about 18,000 reagents; this is a part drawn at random. In the full data, about 2,900 (16%) were called active. 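Calls are made per well; low scores hint the gene aids the LPS response, high scores that it dampens it.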 Repeated entries: four replicate wells of each siRNA pool.

no.	gene	TNF reporter robust z-score	call
1	ZNF681 (zinc finger protein 681)	-1.34	inactive
2	ZNF681 (zinc finger protein 681)	-0.74	inactive
3	ZNF681 (zinc finger protein 681)	-0.91	inactive
4	ZNF681 (zinc finger protein 681)	-0.68	inactive
5	ACE2 (angiotensin converting enzyme 2)	0	inactive
6	ACE2 (angiotensin converting enzyme 2)	-0.41	inactive
7	ACE2 (angiotensin converting enzyme 2)	0.44	inactive
8	ACE2 (angiotensin converting enzyme 2)	-0.09	inactive
9	PHLDA2 (pleckstrin homology like domain family A member 2)	-1.68	active
10	PHLDA2 (pleckstrin homology like domain family A member 2)	-1.32	inactive
11	PHLDA2 (pleckstrin homology like domain family A member 2)	-0.71	inactive
12	PHLDA2 (pleckstrin homology like domain family A member 2)	-1.07	inactive
13	CCDC25 (coiled-coil domain containing 25)	-1.58	active
14	CCDC25 (coiled-coil domain containing 25)	-1.5	inactive
15	CCDC25 (coiled-coil domain containing 25)	-1.3	inactive
16	CCDC25 (coiled-coil domain containing 25)	-1.03	inactive
17	OTUD7A (OTU deubiquitinase 7A)	0.23	inactive
18	OTUD7A (OTU deubiquitinase 7A)	0	inactive
19	OTUD7A (OTU deubiquitinase 7A)	-0.73	inactive
20	OTUD7A (OTU deubiquitinase 7A)	-0.78	inactive
21	BSN (bassoon presynaptic cytomatrix protein)	-0.06	inactive
22	BSN (bassoon presynaptic cytomatrix protein)	1.3	inactive
23	BSN (bassoon presynaptic cytomatrix protein)	0.11	inactive
24	BSN (bassoon presynaptic cytomatrix protein)	-0.25	inactive
25	FGF5 (fibroblast growth factor 5)	0.57	inactive
26	FGF5 (fibroblast growth factor 5)	0.23	inactive
27	FGF5 (fibroblast growth factor 5)	0.67	inactive
28	FGF5 (fibroblast growth factor 5)	1.74	inactive
29	IMPA1 (inositol monophosphatase 1)	-1.22	inactive
30	IMPA1 (inositol monophosphatase 1)	-0.07	inactive
31	IMPA1 (inositol monophosphatase 1)	-0.36	inactive
32	IMPA1 (inositol monophosphatase 1)	-0.28	inactive
33	B4GALT7 (beta-1,4-galactosyltransferase 7)	0.01	inactive
34	B4GALT7 (beta-1,4-galactosyltransferase 7)	0.1	inactive
35	B4GALT7 (beta-1,4-galactosyltransferase 7)	0.11	inactive
36	B4GALT7 (beta-1,4-galactosyltransferase 7)	1.5	inactive
37	SHCBP1 (SHC binding and spindle associated 1)	-1.39	inactive
38	SHCBP1 (SHC binding and spindle associated 1)	-1.19	inactive
39	SHCBP1 (SHC binding and spindle associated 1)	-1.1	inactive
40	SHCBP1 (SHC binding and spindle associated 1)	-0.6	inactive
41	VSIG1 (V-set and immunoglobulin domain containing 1)	-0.46	inactive
42	VSIG1 (V-set and immunoglobulin domain containing 1)	0.05	inactive
43	VSIG1 (V-set and immunoglobulin domain containing 1)	0.3	inactive
44	VSIG1 (V-set and immunoglobulin domain containing 1)	0.25	inactive
45	DIPK1C (divergent protein kinase domain 1C)	-0.91	inactive
46	DIPK1C (divergent protein kinase domain 1C)	-0.31	inactive
47	DIPK1C (divergent protein kinase domain 1C)	-0.93	inactive
48	DIPK1C (divergent protein kinase domain 1C)	-0.75	inactive
49	H3C6 (H3 clustered histone 6)	-0.13	inactive
50	H3C6 (H3 clustered histone 6)	-0.43	inactive
51	H3C6 (H3 clustered histone 6)	-0.64	inactive
52	H3C6 (H3 clustered histone 6)	-1.36	inactive
53	TAFA2 (TAFA chemokine like family member 2)	-0.1	inactive
54	TAFA2 (TAFA chemokine like family member 2)	0.26	inactive
55	TAFA2 (TAFA chemokine like family member 2)	0.58	inactive
56	TAFA2 (TAFA chemokine like family member 2)	1.62	inactive
57	HINFP (histone H4 transcription factor)	-0.21	inactive
58	HINFP (histone H4 transcription factor)	0.26	inactive
59	HINFP (histone H4 transcription factor)	-1.27	inactive
60	HINFP (histone H4 transcription factor)	-0.63	inactive
61	UBE2F (ubiquitin conjugating enzyme E2 F (putative))	0.45	inactive
62	UBE2F (ubiquitin conjugating enzyme E2 F (putative))	-0.34	inactive
63	UBE2F (ubiquitin conjugating enzyme E2 F (putative))	0.24	inactive
64	UBE2F (ubiquitin conjugating enzyme E2 F (putative))	0.01	inactive
65	LDB3 (LIM domain binding 3)	-0.81	inactive
66	LDB3 (LIM domain binding 3)	0.2	inactive
67	LDB3 (LIM domain binding 3)	1.32	inactive
68	LDB3 (LIM domain binding 3)	-0.6	inactive
69	CIROZ	-0.09	inactive
70	CIROZ	-0.72	inactive
71	CIROZ	-0.48	inactive
72	CIROZ	0.22	inactive
73	INO80 (INO80 complex ATPase subunit)	-1.16	inactive
74	INO80 (INO80 complex ATPase subunit)	-0.94	inactive
75	INO80 (INO80 complex ATPase subunit)	-0.17	inactive
76	INO80 (INO80 complex ATPase subunit)	-1.18	inactive
77	PFDN2 (prefoldin subunit 2)	-0.66	inactive
78	PFDN2 (prefoldin subunit 2)	0.05	inactive
79	PFDN2 (prefoldin subunit 2)	0	inactive
80	CLEC12B (C-type lectin domain family 12 member B)	3.35	active
81	CLEC12B (C-type lectin domain family 12 member B)	3.83	active
82	CLEC12B (C-type lectin domain family 12 member B)	5.45	active
83	CLEC12B (C-type lectin domain family 12 member B)	3	active
84	MYB (MYB proto-oncogene, transcription factor)	-0.84	inactive
85	MYB (MYB proto-oncogene, transcription factor)	-0.28	inactive
86	MYB (MYB proto-oncogene, transcription factor)	-0.53	inactive
87	MYB (MYB proto-oncogene, transcription factor)	0.15	inactive
88	KANK1 (KN motif and ankyrin repeat domains 1)	-0.35	inactive
89	KANK1 (KN motif and ankyrin repeat domains 1)	0.51	inactive
90	KANK1 (KN motif and ankyrin repeat domains 1)	0.4	inactive
91	KANK1 (KN motif and ankyrin repeat domains 1)	0.29	inactive
92	SOS1 (SOS Ras/Rac guanine nucleotide exchange factor 1)	-0.16	inactive
93	SOS1 (SOS Ras/Rac guanine nucleotide exchange factor 1)	-0.01	inactive
94	SOS1 (SOS Ras/Rac guanine nucleotide exchange factor 1)	-0.4	inactive
95	SOS1 (SOS Ras/Rac guanine nucleotide exchange factor 1)	0.26	inactive
96	ETV7 (ETS variant transcription factor 7)	-0.74	inactive
97	ETV7 (ETS variant transcription factor 7)	-0.53	inactive
98	ETV7 (ETS variant transcription factor 7)	-1.22	inactive
99	ETV7 (ETS variant transcription factor 7)	-0.69	inactive
100	CCND1 (cyclin D1)	1.4	inactive
101	CCND1 (cyclin D1)	2.04	inactive
102	CCND1 (cyclin D1)	1.59	inactive
103	CCND1 (cyclin D1)	2.82	active
104	ENTHD1 (ENTH domain containing 1)	-0.49	inactive
105	ENTHD1 (ENTH domain containing 1)	-0.68	inactive
106	ENTHD1 (ENTH domain containing 1)	0.66	inactive
107	ENTHD1 (ENTH domain containing 1)	0.02	inactive
108	SPANXC (SPANX family member C)	1.03	inactive
109	SPANXC (SPANX family member C)	2.55	inactive
110	SPANXC (SPANX family member C)	1.14	inactive
111	SPANXC (SPANX family member C)	1.89	inactive

14 entries already listed, ordered by “TNF reporter robust z-score”, high to low:
gene	TNF reporter robust z-score	call
KANK1 (KN motif and ankyrin repeat domains 1)	0.51	inactive
KANK1 (KN motif and ankyrin repeat domains 1)	0.4	inactive
KANK1 (KN motif and ankyrin repeat domains 1)	0.29	inactive
SOS1 (SOS Ras/Rac guanine nucleotide exchange factor 1)	0.26	inactive
MYB (MYB proto-oncogene, transcription factor)	0.15	inactive
SOS1 (SOS Ras/Rac guanine nucleotide exchange factor 1)	-0.01	inactive
SOS1 (SOS Ras/Rac guanine nucleotide exchange factor 1)	-0.16	inactive
MYB (MYB proto-oncogene, transcription factor)	-0.28	inactive
KANK1 (KN motif and ankyrin repeat domains 1)	-0.35	inactive
SOS1 (SOS Ras/Rac guanine nucleotide exchange factor 1)	-0.4	inactive
MYB (MYB proto-oncogene, transcription factor)	-0.53	inactive
ETV7 (ETS variant transcription factor 7)	-0.53	inactive
ETV7 (ETS variant transcription factor 7)	-0.74	inactive
ETV7 (ETS variant transcription factor 7)	-1.22	inactive
